Article PMC11796366, “The Campylobacter jejuni BumS sensor phosphatase detects the branched short-chain fatty acids isobutyrate and isovalerate as direct cues for signal transduction” (mBio, 2024)

Target: T1, BumS (WT BumS-Myc-6XHis) (Campylobacter jejuni, UniProt Z9AJU0DEG1)
T1 construct: gene CJJ81176_1484; second to penultimate codon, C-terminal Myc-6XHis tag kept (pBAD/Myc-HisA, pNR251), expressed in E. coli TOP10; cytoplasmic, N-terminal PAS domain (about residues 1-120)
T1 sequence (Z9AJU0DEG1 2-403): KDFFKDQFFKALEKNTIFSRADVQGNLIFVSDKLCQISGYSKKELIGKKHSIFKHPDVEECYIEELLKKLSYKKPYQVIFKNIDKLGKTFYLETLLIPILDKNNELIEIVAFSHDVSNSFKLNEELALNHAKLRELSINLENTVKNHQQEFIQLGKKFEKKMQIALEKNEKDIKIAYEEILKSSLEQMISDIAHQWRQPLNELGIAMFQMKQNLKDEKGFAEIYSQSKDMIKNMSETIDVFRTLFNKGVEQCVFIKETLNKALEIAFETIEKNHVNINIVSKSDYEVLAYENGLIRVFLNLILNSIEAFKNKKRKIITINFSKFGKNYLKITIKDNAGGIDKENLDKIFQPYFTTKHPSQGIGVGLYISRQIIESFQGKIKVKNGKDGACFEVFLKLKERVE
Assay: CD thermal melt at […] nm
Assay type: binding
Settings: […]; […] HEPES, […] NaSO4, […] glycerol; […]-95 °C

CC(C)CC(=O)O [isovalerate]
Tm,app: isobutyrate and isovalerate had a net destabilizing effect on the thermostability of BumS
